± gives the standard deviation. This is a selection; strong and weak results do not stand in their true shares. The uncertainty is large for many entries.
What follows are sequences tested on MILI (PIWIL2) piRISC loaded with Kctd7 piRNA (26 nt) (assay: pre-steady-state target cleavage rate (min^-1); MIWI and MILI are mouse PIWI proteins and EfPiwi is from a freshwater sponge; tags in brackets are library labels; higher = faster piRNA-guided slicing of the target). Conditions: guide: Kctd7 piRNA 5'p-UGUUAAUCUCUCAGAGAAGGUGACAG; auxiliary factor: 500 nM mouse GTSF1.
Method in brief: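 A transcribed, DNA-blocked target RNA library […] was incubated at 33 °C for 0–8 or 0–960 min with 1 nM active affinity-purified piRISC carrying one synthetic guide, in HEPES–potassium acetate buffer with or without 500 nM GTSF1 partner protein. Uncleaved targets were then sequenced and normalised to depth and to weakly complementary targets. Data from three trials were pooled, with k3 capped at 0.0001 min^-1, and a burst-and-steady-state fit yielded the pre-steady-state cleavage rate.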
For UAGUGACAGUCCAAGUCUGAGAGAUUAAGA, the “pre-steady-state target cleavage rate” value was 0.000574 ± 0.013.
In the case of UAGUGACAGUGGUUGUCUGAGAGAAUAACA, the “pre-steady-state target cleavage rate” value is reported as 0.000323 ± 0.019.
UAGUGACAGUGGAUAUCUGAGAGAUUAACA was tested, and the “pre-steady-state target cleavage rate” value was 0.00214 ± 0.0022.
In the case of “UAGUGACACACCUUCUCUGAGUCUAAUUGA [g10:g22:cont:t1A]”, the “pre-steady-state target cleavage rate” value is reported as 0.000499 ± 0.013.
UAGUGAGUCACCUUCUCUGAGAGAUUAAGA was tested, and the “pre-steady-state target cleavage rate” value was 0.219 ± 0.035.
UAGUGACAGUGCUUCUCUGAGGAUUAACA was tested, and the “pre-steady-state target cleavage rate” value was 0.000249 ± 0.014.
UAGUGACAGUGGAACGUCUGAGAGAUUAACA was tested, and the “pre-steady-state target cleavage rate” value was 0.00151 ± 0.003.
With UAGUGACUCAGCUUCUCUGAGUGAUUAACA the “pre-steady-state target cleavage rate” value was 0.00132 ± 0.0088.
For UAGUGUGUCACCUUCUCACAGAGAUUUUGA, the “pre-steady-state target cleavage rate” value was 0.00191 ± 0.0068.
For UAGUGACACACGUUCUCUGAGAGAUAUUGA, the “pre-steady-state target cleavage rate” value was 0.000487 ± 0.013.
For UAGUGACAGUGGAGCUCUGAGAGAUUAACA, the “pre-steady-state target cleavage rate” value was 0.000615 ± 0.0077.
For UAGUGACAGACCUUCUCUGAGUCUUUUUGA, the “pre-steady-state target cleavage rate” value was 0.000411 ± 0.029.
UAGUGACAGUGGUUCACUGAGUGAUUAACA was tested, and the “pre-steady-state target cleavage rate” value was 0.0022 ± 0.0037.
In the case of UAGUGACAGACCUUCUCUGAGAGUAUAACA, the “pre-steady-state target cleavage rate” value is reported as 0.00513 ± 0.0052.
UAGUGACAGUGCUUCUACUGAGAGAUUAACA was tested, and the “pre-steady-state target cleavage rate” value was 0.00159 ± 0.0055.
UAGUCUGUGUGCUUCUCUGAGAGAUUAUGA was tested, and the “pre-steady-state target cleavage rate” value was 0.000819 ± 0.0047.
UAGUGACAGUCCUUCUCUAGAGAGAUUAACA was tested, and the “pre-steady-state target cleavage rate” value was 0.000507 ± 0.015.
With UAGUCUGUCACCUUGCUCUGAGAGAUUAACA the “pre-steady-state target cleavage rate” value was 0.299 ± 0.059.
With “UAGUGACAGUGGAAGAGACUCUCAUUAACU [g2:g7:cont:t1U]” the “pre-steady-state target cleavage rate” value was 0.000112 ± 0.033.
For UAGUGACACUGCUUCUCUGAGAGAUAUUGA, the “pre-steady-state target cleavage rate” value was 0.000354 ± 0.012.
For UAGUGAGUCACCUUCUCUGAGAGAUUAAUCA, the “pre-steady-state target cleavage rate” value was 0.292 ± 0.053.
In the case of UAGUGACAGUGGAAGUCUGAGAAGAUUAACA, the “pre-steady-state target cleavage rate” value is reported as 0.00016 ± 0.017.
With UAGUGACAGUCCUUCUCUGAGCAGAUUAACA the “pre-steady-state target cleavage rate” value was 0.00085 ± 0.0073.
With UAGUGACUCACCUUCUGUGACAGAUUAACA the “pre-steady-state target cleavage rate” value was 0.0678 ± 0.011.
In the case of UAGUGACAGUGGAAUUCUGAGAGAUUAACA, the “pre-steady-state target cleavage rate” value is reported as 0.00018 ± 0.028.
With UAGUGUGUCACCUUCAGAGAGAGAUUAAGA the “pre-steady-state target cleavage rate” value was 0.00336 ± 0.0058.
With UAGUGACUCACCUUCAGUGAGAGAUUUUGA the “pre-steady-state target cleavage rate” value was 0.00314 ± 0.0039.
UAGUGACAGUCCAACUCUGAGAGAUUAAGA was tested, and the “pre-steady-state target cleavage rate” value was 0.000311 ± 0.0073.
With UAGUCUCAGACCUUCUCUGAGAGAUUAUGA the “pre-steady-state target cleavage rate” value was 0.00304 ± 0.0043.
In the case of “UAGUGAGUCACCUUCUCUGAGAGAUUAACU [g2:g24:cont:t1U]”, the “pre-steady-state target cleavage rate” value is reported as 0.288 ± 0.038.
With UAGUGACUCACCUUCACUGAGUGAUUAACA the “pre-steady-state target cleavage rate” value was 0.00256 ± 0.004.
“UAGUGACAGACCUUCUGACUCUCUAAUUGA [g15:g21:cont:t1A]” was tested, and the “pre-steady-state target cleavage rate” value was 0.000384 ± 0.019.
For UAGUGACAGUGGAACUCUGAGAGAUUAGACA, the “pre-steady-state target cleavage rate” value was 0.000146 ± 0.038.
In the case of UAGUGACUCACCUUCUCUAGAGAGAUUAACA, the “pre-steady-state target cleavage rate” value is reported as 0.000637 ± 0.013.
With UAGUGACAGUGGAAGAGACAGAGAUUUACA the “pre-steady-state target cleavage rate” value was 0.000453 ± 0.011.
In the case of UAGUGUGUCACCUUCUCACAGAGAUUAUGA, the “pre-steady-state target cleavage rate” value is reported as 0.00166 ± 0.0085.
In the case of UAGUGACAGUCCUUGUCUGAGAGAUUAUCA, the “pre-steady-state target cleavage rate” value is reported as 0.00224 ± 0.0062.
In the case of UAGUGACAGACCUUCUCGUGAGAGAUUAACA, the “pre-steady-state target cleavage rate” value is reported as 0.000361 ± 0.034.
In the case of UAGUGACAGACCUUCUCUGACAGAAUAACA, the “pre-steady-state target cleavage rate” value is reported as 0.000376 ± 0.029.
For UAGUGACAGUGGAAGAGACAGAGAUAUACA, the “pre-steady-state target cleavage rate” value was 0.000282 ± 0.024.
UAGUGAGUCACGUUCUCUGAGAGAUAUUGA was tested, and the “pre-steady-state target cleavage rate” value was 0.00136 ± 0.0081.
With UAGUGACAGACCUUCUCUGAGUCUUUAACA the “pre-steady-state target cleavage rate” value was 0.000348 ± 0.025.
UAGUGACAGUCCUUCUCACAGAGAUUAACA was tested, and the “pre-steady-state target cleavage rate” value was 0.00123 ± 0.0067.
UAGUGACUCACCUUCUCUGACUCAUUAAGA was tested, and the “pre-steady-state target cleavage rate” value was 0.000451 ± 0.014.
In the case of UAGUGACAGUGCUUCUCUGACUGAUUAACA, the “pre-steady-state target cleavage rate” value is reported as 0.000129 ± 0.016.
In the case of UAGUGACAGUGCAUCUCUGAGACAUUAACA, the “pre-steady-state target cleavage rate” value is reported as 0.000208 ± 0.015.
With UAGUGACAGUGGAAGUCUGAGAAUUAACA the “pre-steady-state target cleavage rate” value was 0.000105 ± 0.052.
UAGUGACUCACCUAGUCUGAGAGAUUAACA was tested, and the “pre-steady-state target cleavage rate” value was 0.0896 ± 0.0089.
For UAGUGACAGUGGAACUCUGAGAGCUUAACA, the “pre-steady-state target cleavage rate” value was 0.000211 ± 0.029.
With UAGUGACACACCUUCUCUGAGAGAUUACA the “pre-steady-state target cleavage rate” value was 0.0753 ± 0.023.
UAGUGACAGACCUUCUCUGAGUCAUUAACA was tested, and the “pre-steady-state target cleavage rate” value was 0.001 ± 0.0092.
With UAGUGACAGACCAUCUCUGAGAGAUUAUGA the “pre-steady-state target cleavage rate” value was 0.0015 ± 0.0073.
For UAGUGACAGUGGAAGAGACUCAGAUUAACA, the “pre-steady-state target cleavage rate” value was 0.000304 ± 0.013.
With UAGUGACACACCUUCUCUGAGUGAUUUACA the “pre-steady-state target cleavage rate” value was 0.000912 ± 0.013.
In the case of UAGUGACAGUGCUUCUCUGGAGAUUAACA, the “pre-steady-state target cleavage rate” value is reported as 0.00111 ± 0.0057.
In the case of UAGUGACAGUGGAAGACUGAGUGAUUAACA, the “pre-steady-state target cleavage rate” value is reported as 0.000145 ± 0.017.
For UAGUGACACACCUUCUCUGACUGAUUUUGA, the “pre-steady-state target cleavage rate” value was 0.000102 ± 0.088.
UAGUGACAGUGGAACUCUGACUCAUUAACA was tested, and the “pre-steady-state target cleavage rate” value was 0.000327 ± 0.019.
With UAGUGACACACCUUCUCUGCAGAGAUUAACA the “pre-steady-state target cleavage rate” value was 0.00221 ± 0.0052.
With UAGUGAGUCACCUUCUCUGAGAGAUUAAA the “pre-steady-state target cleavage rate” value was 0.202 ± 0.045.
For UAGUGACAGACCUUCUCUGAGAAUUAACA, the “pre-steady-state target cleavage rate” value was 0.000676 ± 0.016.
“UAGUGACAGUGGAACUCUGAGAGAUUAACA [g2:g16:cont:t1A]” was tested, and the “pre-steady-state target cleavage rate” value was 0.000448 ± 0.013.
For UAGUGACAGACCUUGUCUGAGUGAUUAACA, the “pre-steady-state target cleavage rate” value was 0.00271 ± 0.0033.
For UAGUGACACUGGUUCUCUGAGAGAUUAUGA, the “pre-steady-state target cleavage rate” value was 0.00246 ± 0.0035.
UAGUGUGUCUGCUUCUCUGAGAGAUAUUGA was tested, and the “pre-steady-state target cleavage rate” value was 0.000203 ± 0.025.
For UAGUGACAGUGGAACUCUGAGCGAUUAACA, the “pre-steady-state target cleavage rate” value was 0.00705 ± 0.0085.
For UAGUGACAGUCCUUCUCUGACACAUUAACA, the “pre-steady-state target cleavage rate” value was 0.000318 ± 0.02.
In the case of UAGUGACAGUCCUUCUCUGAGAGAUAACA, the “pre-steady-state target cleavage rate” value is reported as 0.000266 ± 0.0069.
UAGUCUGUCACCUUCUCUGAGAGAUUAAA was tested, and the “pre-steady-state target cleavage rate” value was 0.13 ± 0.026.
In the case of UAGUGACAGACCUUCAGAGAGAGAUUAACA, the “pre-steady-state target cleavage rate” value is reported as 0.00113 ± 0.013.
UAGUGACAGUGCUUCUCUGAGAGAUAAUCA was tested, and the “pre-steady-state target cleavage rate” value was 0.000617 ± 0.0056.
UAGUGACAGUGCUUCUCUCGAGAGAUUAACA was tested, and the “pre-steady-state target cleavage rate” value was 0.000794 ± 0.0097.
For UAGUGACAGACCUUCUGACAGAGAUUAACA, the “pre-steady-state target cleavage rate” value was 0.000752 ± 0.015.
In the case of UAGUGACUCACCUUCUCUGUGUGAUUAACA, the “pre-steady-state target cleavage rate” value is reported as 0.000738 ± 0.011.
With UAGUGACAGUCCUUCUCAUGAGAGAUUAACA the “pre-steady-state target cleavage rate” value was 0.000962 ± 0.0084.
UAGUGACAGUGCUUCUCUCUGAGAUUAACA was tested, and the “pre-steady-state target cleavage rate” value was 0.001 ± 0.0044.
In the case of UAGUGACAGUGGAUACUCUGAGAGAUUAACA, the “pre-steady-state target cleavage rate” value is reported as 0.000339 ± 0.0082.
With UAGUGACAGUGGAAGAGAGACAGAUUAUCA the “pre-steady-state target cleavage rate” value was 0.000169 ± 0.024.
In the case of UAGUGACAGUGCUUCUCUGACUCAUUAAGA, the “pre-steady-state target cleavage rate” value is reported as 0.000143 ± 0.023.
For UAGUGACAGUGGAACUCUGACACAUUAACA, the “pre-steady-state target cleavage rate” value was 0.000165 ± 0.025.
In the case of UAGUGACAGUCCUUCUCUGAGGAUUAACA, the “pre-steady-state target cleavage rate” value is reported as 0.000405 ± 0.0087.
With UAGUGACAGUGGAACUCUGAGAGAUUAACCA the “pre-steady-state target cleavage rate” value was 0.000398 ± 0.014.
UAGUGAGUCACCUUCUCUGAGAGAUUAAUA was tested, and the “pre-steady-state target cleavage rate” value was 0.217 ± 0.03.
In the case of UAGUGACAGUGCUACACUGAGAGAUUAACA, the “pre-steady-state target cleavage rate” value is reported as 0.00282 ± 0.0037.
For UAGUGACAGUGGAAGAGACUGUCUUUAACA, the “pre-steady-state target cleavage rate” value was 0.000402 ± 0.017.
With UAGUGACAGUGCUUCUCUGAGACAUAAACA the “pre-steady-state target cleavage rate” value was < 0.0001.
In the case of UAGUGACAGUGGAAGUCUGAGAGAAUUAACA, the “pre-steady-state target cleavage rate” value is reported as 0.00012 ± 0.022.
For UAGUGACAGUGGAAGAGUGAGAGAUUCAACA, the “pre-steady-state target cleavage rate” value was 0.00026 ± 0.025.
UAGUGACAGUGGAAGAGACUCAGAUUAUCA was tested, and the “pre-steady-state target cleavage rate” value was 0.000158 ± 0.01.
In the case of UAGUGACAGUGGUUCUUCUGAGAGAUUAACA, the “pre-steady-state target cleavage rate” value is reported as 0.000573 ± 0.0052.
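Note: 1 nM active piRISC with 0.1 nM target library at 33 °C single turnover.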
